These are yes or no findings as the source states them, for the method shown. Some entries that bind do so weakly or less than the wild type.
Molecular target: PD-L1-his(ACRO biosystem) (human) (UniProt Q9NZQ7)
Test: One of the 39 clones positive in the ELISA on coated PD-L1-his (OD450 > 0.4); blocking ELISA with PD-L1-his in solution

By UniProt entry, the sequences of proteins in these tests, tags left out.
UniProt Q9NZQ7: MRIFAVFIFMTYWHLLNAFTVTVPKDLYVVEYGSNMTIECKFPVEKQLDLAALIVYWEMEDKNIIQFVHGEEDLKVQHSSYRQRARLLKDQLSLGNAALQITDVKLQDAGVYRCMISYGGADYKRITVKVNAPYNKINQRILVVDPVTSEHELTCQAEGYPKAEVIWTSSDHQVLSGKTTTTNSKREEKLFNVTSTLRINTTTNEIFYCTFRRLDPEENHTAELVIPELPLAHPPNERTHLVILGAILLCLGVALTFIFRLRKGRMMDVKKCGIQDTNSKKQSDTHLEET

binding: binds
B1: 克隆2G3 (scFv, V domains shown)
VH: QIQLQQSGAELMKPGASVKISCKASGYTFTDYNIHWVKQSHGKSLEWIGRINPYNGDTFYNQKFKGKATLTVDKSSSTAHMELLSLTSEDSAVYYCGRMGYDAWFAYWGQGTLVTVSA
VL: DIQMTQSHKFMSTSVGDRVSITCKASQDVGTAVAWYQQKPGQSPKLLIYWASTRHTGVPDRFTGSGSGTDFTLTISNVQSEDLADYFCQQYSSYPLTFGGGTKLEIK

Source: patent publication CN113501879A
